Our source for the z-score values is PubChem BioAssay AID1347423 (Functional Genomics Laboratory (NCATS/FGL), 2020).

The campaign covered roughly 52,000 sequences. About 210 (0.4%) were called active.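 How the source made its calls: active means gene whose silencing raises cell survival under the drug, median off-target-corrected z-score across its silencing RNAs 2 or more; inactive means the rest.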 This is one part of the list.

A short description of the experiment: Resistance to Poly (ADP-Ribose) Polymerase inhibitor: Gene Identification via Genome-wide siRNA Screen. As to conditions: mouse BRCA2 R2336H ES cells, olaparib, CellTiter-Glo viability; active compounds read high. The essentials:
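Genome-wide siRNA screen (3 siRNAs/gene, 20 nM) in mouse ES cells carrying hypomorphic BRCA2 R2336H; olaparib 500 nM added 48 h post-transfection, CellTiter-Glo viability 72 h later. Normalized to plate-median negative control; MAD z-scores, gene median, seed-adjusted.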
As for GCCAGAAGCAGCUUACCUGTT against Sec1, the z-score is inactive: 0.0348. Regarding GGACCUAUCUGAUGUCCAGTT against Il18rap, the z-score is inactive: -0.403. “GGGUAUAAGGACAAACAUUTT against 9030605H24Rik”: the z-score was inactive: 0.346. To GCGGCCUCAUCAUUUCAUCTT against Actr5 belongs inactive: 1.72; to GGCAUUUCAACAUCAAUAUTT against V2r1b, inactive: -0.748; to GGAAGUGGAAAAACUGGUGTT against Ddx1, inactive: 2.14.

In the case of GACAAUACCAUAUCCUUUGTT against Olfr698, the z-score is inactive: -0.225. In the case of GGAGAGGUUACUUUUGAGGTT against Slc25a13, the z-score is inactive: 0.128.

Turning to GGAAAUUAGUGCUGGGCGUTT against Erbb3, the z-score was inactive: -0.466. In the case of GGAAAGAAGAAAGAACACATT against Tmpo, the z-score is inactive: -0.13. Regarding GGACGAGGACCAGCUAGAATT against Txn2, the z-score was inactive: -1.18. For the sequence GCUUUAUGGAUCUACCAAATT against Fbxl3a, the z-score is inactive: 0.216. On to GGUCAGGUUGCCAAGAAGGTT against Sbds, for which the z-score was inactive: 0.3.

Consider GCCGGAGAUUUAAUAUUGATT against Chml, for which the z-score is inactive: 1.23. In the case of GGCAGAAAAUUGUUCUUAUTT against Cpt1a, the z-score is inactive: -0.955. Turning to GGUGCAGGCUCUCAAGAAGTT against BC018462, the z-score is inactive: 1.95. To “GCCUUCACGUGUGAAGAAUTT against 2810028N01Rik” belongs inactive: -1.74; to GCUGUUGUGUACGUGAGCCTT against Trfr2, inactive: 0.223. For the sequence GGCAGAUUGAUAAAAUUCATT against Stag1, the z-score is inactive: 0.46. As for “CCAGAGUGUUCACAGAACATT against 4933430F08Rik”, the z-score was inactive: -0.117.

In the case of GGCUGUUUGUGUUCUGUGCTT against Mst1, the z-score was inactive: -0.246. Consider GCUCGUUGUCCAUAGUAGATT against Olfr1273, for which the z-score was inactive: 1.02. GGGUGCACUUUUGAUUCUATT against Ifitm7: the z-score was inactive: 0.542. As to GGGUACAUCUAACUUGAAUTT against Tnfrsf10b, the z-score is inactive: 0.37. In the case of GCCAAGUAUCAUCCAUUCCTT against Olfr23, the z-score is inactive: 0.26.

Take CGUGCUACGAACAUGCUGCTT against Mmd: the z-score is inactive: 1.73. In the case of “GCCAGUACAUUGUCCAUGATT against 1700029I01Rik”, the z-score is inactive: -0.146.

Turning to “GGGUGGAAGCUUUUUAAUATT against 0610016J10Rik”, the z-score was inactive: 0.175. To CGAUUUUCACCAAUUGUGGTT against Diap2 belongs inactive: 0.895. For GGACUUAUUUCUCAAGUGUTT against Cd5, the z-score was inactive: -0.31.

Regarding “GGUGUAAAGUAAUCAAGGCTT against 9430056A22Rik”, the z-score was inactive: 1.61. In the case of CCUGUCGUUUAACCCUGUCTT against Ttc11, the z-score is inactive: -2.08.

Take GGCUUUGUGCAAGGUCAUUTT against Hcrtr1: the z-score was inactive: -0.229. For the sequence GGUUCACAGAAUUUAAGUGTT against Clecsf6, the z-score was inactive: -0.754. With “GCUAUUAAGACCUUGGGAGTT against 4833432P19Rik”, the z-score is inactive: -0.547.

In the case of GGGAUCAUCUUGCUGUUCUTT against Cd79a, the z-score was inactive: -0.16.

As for GGAAUUAUGCUUCCAUCAUTT against Lmyc1, the z-score was inactive: -0.654. In the case of GGCUCAAAAUGUUCAAGCCTT against Trim12, the z-score is inactive: 1.48.

Turning to “GCCAAGCCUUUAUCUACCGTT against 4932442K08Rik”, the z-score is inactive: -0.437. On to GGCCAGUUGAAUGUGUCUGTT against Acas2l, for which the z-score was inactive: 0.409. As to GGAGAUCGAACUCAGCUCATT against C2ta, the z-score is inactive: 0.719. Turning to GCUUUCAGUGAGGUACAAGTT against LOC432637, the z-score is inactive: -0.263. Regarding GGAAAAAGCCAGGCCUUUUTT against Rod1, the z-score was inactive: -0.287. Regarding “CCCUUAAAAUGUGCAUAUCTT against 4432406C05Rik”, the z-score is inactive: -0.75. On to GGUCCUGGAGGAUACUUGGTT against Slc17a3, for which the z-score was inactive: -0.287. “GCACAACUUGUGGUAGAAGTT against 4933409G03Rik”: the z-score was inactive: 0.162. As for GCAGUUGUAGGAACCGAAATT against Cxxc5, the z-score is inactive: 0.457. Turning to “GUGGAAGACUUCACCGGACTT against 6530401D17Rik”, the z-score was inactive: -1.65. Take GCUGAGCUCGGCUUUUCUATT against BC012256: the z-score was inactive: -0.115. Take GUCCCUCAAAAUGACGGACTT against Tlx3: the z-score was inactive: 0.167. For CCGUAUGAACGUGUGAUAATT against Rasef, the z-score is inactive: -0.723. Regarding GGUACCAUUCUGCACUACATT against Kcnh6, the z-score is inactive: 2.9.

Consider CCAGUAUACCUAUGACUGCTT against Apba3, for which the z-score is inactive: 0.699.

With CCCUACGGACCGUAAAUAGTT against Psg16, the z-score was inactive: -1.93.

For the sequence GCUCAACGAACAUUUAUAGTT against Usp26, the z-score was inactive: -0.111. In the case of CCUUCAGUAGGAGUGCUGCTT against Peg3, the z-score was inactive: 0.464. With GGACUUUUAAGUUUGUAUGTT against Grpel1, the z-score is inactive: 1.14. On to “GGACUUCAUGGAGAGACGUTT against 4932432K03Rik”, for which the z-score was inactive: 1.1.

As to CGGUUCUCUACAUUACUGCTT against Tm4sf11, the z-score is inactive: -0.749. As to GGACCUAGAGGAAGUGAAATT against Apoa1, the z-score is active: 2.05. To CCCUCAAUAGUGCUGGUUATT against Galp belongs inactive: 0.503; to GGAGCAGGAGGUGUAUGUATT against Efs, inactive: 0.408. To GCACAAAGAUCCCUCUUCATT against Olfr1162 belongs inactive: 1.37; to CGUUUCCUGCUCAAAUCCUTT against Abhd2, inactive: 0.857; to “GGAGCUUUCCACUGAGUUCTT against 1700012A03Rik”, inactive: 0.928. Consider CCUUGUGGACUCUUUAAUUTT against Idb2, for which the z-score was inactive: 1.93. For the sequence GCAGCUAAUGCAGAUAUUATT against Sucla2, the z-score was inactive: -1.16.
